These are yes or no findings as the source states them, for the method shown. In cells and extracts the contact can be indirect. Some entries that bind do so weakly or less than the wild type.
Target: T1, BAG5 (UniProt Q9UL15)
T1 sequence: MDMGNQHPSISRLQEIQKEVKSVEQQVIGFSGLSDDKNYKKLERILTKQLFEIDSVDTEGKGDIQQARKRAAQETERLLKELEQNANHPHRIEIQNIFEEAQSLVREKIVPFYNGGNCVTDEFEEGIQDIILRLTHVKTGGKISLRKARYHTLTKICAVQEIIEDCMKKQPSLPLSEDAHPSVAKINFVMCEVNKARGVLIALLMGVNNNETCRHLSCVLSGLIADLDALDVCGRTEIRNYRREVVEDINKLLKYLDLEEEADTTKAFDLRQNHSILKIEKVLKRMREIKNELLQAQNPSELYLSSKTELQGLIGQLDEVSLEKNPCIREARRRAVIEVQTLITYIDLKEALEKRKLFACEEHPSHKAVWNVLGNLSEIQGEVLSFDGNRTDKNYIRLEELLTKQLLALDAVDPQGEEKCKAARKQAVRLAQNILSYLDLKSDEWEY
Test: co-IP; NP-40 lysate (50 mM Tris-HCl pH 7.4, 150 mM NaCl) with anti-Flag magnetic beads overnight at 4 °C, four washes; immunoblot; cell line not stated

Chains of the proteins cited; added tags and fusions are not shown.
UniProt P11142: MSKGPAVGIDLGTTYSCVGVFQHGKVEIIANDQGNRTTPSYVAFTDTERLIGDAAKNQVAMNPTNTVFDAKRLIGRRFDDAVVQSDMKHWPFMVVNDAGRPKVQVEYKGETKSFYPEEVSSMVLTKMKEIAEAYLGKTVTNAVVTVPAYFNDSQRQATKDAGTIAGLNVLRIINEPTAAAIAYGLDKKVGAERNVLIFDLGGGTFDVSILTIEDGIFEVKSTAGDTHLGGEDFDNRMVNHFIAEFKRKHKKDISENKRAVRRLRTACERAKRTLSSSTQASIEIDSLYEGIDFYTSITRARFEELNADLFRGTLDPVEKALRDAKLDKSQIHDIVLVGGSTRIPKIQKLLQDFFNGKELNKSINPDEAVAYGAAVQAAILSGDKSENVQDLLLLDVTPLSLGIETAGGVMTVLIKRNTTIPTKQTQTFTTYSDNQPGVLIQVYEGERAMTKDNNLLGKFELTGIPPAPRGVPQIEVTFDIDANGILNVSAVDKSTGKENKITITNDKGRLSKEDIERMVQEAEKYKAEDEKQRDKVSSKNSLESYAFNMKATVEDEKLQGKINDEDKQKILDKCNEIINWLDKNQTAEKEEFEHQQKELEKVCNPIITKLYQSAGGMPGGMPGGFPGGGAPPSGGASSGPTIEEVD
UniProt Q9Y6M1: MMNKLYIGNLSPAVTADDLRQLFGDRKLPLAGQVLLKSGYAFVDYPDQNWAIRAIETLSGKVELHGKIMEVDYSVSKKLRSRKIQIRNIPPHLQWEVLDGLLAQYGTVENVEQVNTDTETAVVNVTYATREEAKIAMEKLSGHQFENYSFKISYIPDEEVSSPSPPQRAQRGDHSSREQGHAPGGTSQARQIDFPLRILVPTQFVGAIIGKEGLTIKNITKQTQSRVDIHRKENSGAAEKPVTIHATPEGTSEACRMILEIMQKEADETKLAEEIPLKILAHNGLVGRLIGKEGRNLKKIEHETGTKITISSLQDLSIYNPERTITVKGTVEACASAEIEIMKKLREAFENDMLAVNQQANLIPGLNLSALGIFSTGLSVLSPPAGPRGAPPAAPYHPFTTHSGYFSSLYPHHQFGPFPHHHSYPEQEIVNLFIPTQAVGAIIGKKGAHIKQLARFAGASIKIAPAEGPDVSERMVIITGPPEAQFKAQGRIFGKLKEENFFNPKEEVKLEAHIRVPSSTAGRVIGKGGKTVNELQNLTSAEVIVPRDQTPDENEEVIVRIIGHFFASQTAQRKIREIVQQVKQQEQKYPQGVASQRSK
UniProt O00425: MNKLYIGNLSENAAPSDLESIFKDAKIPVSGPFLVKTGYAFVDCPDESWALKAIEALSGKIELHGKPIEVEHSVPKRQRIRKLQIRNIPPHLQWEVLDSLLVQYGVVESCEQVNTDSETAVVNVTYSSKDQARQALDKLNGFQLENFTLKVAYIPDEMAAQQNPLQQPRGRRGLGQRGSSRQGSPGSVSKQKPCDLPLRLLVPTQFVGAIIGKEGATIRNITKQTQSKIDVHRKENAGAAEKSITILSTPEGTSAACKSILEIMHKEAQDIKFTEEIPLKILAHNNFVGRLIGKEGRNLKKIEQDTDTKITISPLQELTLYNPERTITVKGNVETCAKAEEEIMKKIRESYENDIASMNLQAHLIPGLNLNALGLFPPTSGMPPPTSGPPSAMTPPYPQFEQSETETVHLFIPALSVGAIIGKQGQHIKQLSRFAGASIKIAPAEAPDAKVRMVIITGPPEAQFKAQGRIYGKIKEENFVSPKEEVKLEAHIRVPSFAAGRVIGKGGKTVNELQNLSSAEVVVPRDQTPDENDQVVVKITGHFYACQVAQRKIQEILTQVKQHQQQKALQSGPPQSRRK

| binding | Substance |
| --- | --- |
| binds | HSPA8 (from UniProt P11142 1-646) |
| binds | IGF2BP2 (from UniProt Q9Y6M1 1-599) |
| binds | IGF2BP3 (from UniProt O00425 1-579) |
